Assay results published in PubChem BioAssay AID1688 (National Center for Advancing Translational Sciences (NCATS), 2009).
Among all 220,000 compounds or so, about 2,400 (1.1%) were called active. This list was built around the results that the source calls inconclusive (neither active nor inactive); the mix of calls is not that of the screen. Calls follow the shape of the dose curve; as a rule, active = well fitted inhibition curve with a large enough effect; inconclusive = small, poorly fitted or top-dose-only effect, or effect the other way; inactive = no such curve, though single readings can be large or run the other way. Potencies of inconclusive entries are doubtful fits and often do not repeat.

Assay: qHTS Multiplex Assay to Identify Dual Action Probes in a Cell Model of Huntington: Aggregate Formation (GFP); also: nearly all actives have a fitted effect of over 60% in size
Details: PC12 HttQ103-GFP aggregates, Acumen cytometry, 40 h; activity change, negative = inhibition: at 46.1 µM (top of the series) unless noted
Summary of the method: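 Multiplexed with ATP-based cell death, this channel scores GFP aggregates in PC12 cells expressing inducible HTTex1-Q103-GFP. Induction used 100 nM tebufenozide; compounds were tested in concentration series.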
% is scaled to controls: 0 for no effect and ±100 for the full control effect; potency is read from the fitted curve at half-maximal effect.

Row | Structure (SMILES) | Potency | activity change, negative = inhibition
1 | Cc1ccc(NC(=O)CSc2nnc(-c3ccccn3)n2C)cc1 | active: 2.82 µM | –
2 | COc1ccc(CNC(=O)CN(Cc2ccccc2)S(=O)(=O)c2ccc(Cl)cc2)cc1 | inconclusive: 25.1 µM [inhibitor, single point] | –
3 | Cc1cc(-c2n[nH]c(=S)n2/N=C/c2cccc([N+](=O)[O-])c2)n[nH]1 | – | inactive: -1.21%
4 | O=[N+]([O-])/C=C/c1cn(Cc2ccc(Cl)cc2)c2ccccc12 | inconclusive: 3.55 µM [activator, partial curve, poor fit] | –
5 | C=CCn1c(=O)c2ccccc2n2c(SC(C)C(=O)Nc3nc(-c4ccccc4)cs3)nnc12 (configuration not stated) | inconclusive: 3.98 µM [inhibitor, single point] | –
6 | Cc1ccc(S(=O)c2ccc(NC(=O)C3CC3)cc2C#N)cc1 (configuration not stated) | inconclusive: 35.5 µM [inhibitor, single point] | –
7 | CCOC(=O)c1c2c(c(=S)n(-c3ccccc3)c1N)CCC2 | – | inactive: -1.7%
8 | CN1CCN(C(c2ccccn2)c2cc(Cl)c3cccnc3c2O)CC1 (configuration not stated) | inconclusive: 11.2 µM [inhibitor, single point] | –
9 | COc1ccc(N=c2scc(-c3ccc(OC)cc3)n2CCO)cc1 | inconclusive: 11.2 µM [inhibitor, single point] | –
10 | CCOc1cc(C2Nc3cccc4cccc(c34)N2)ccc1O | – | inactive: 16.2% [at 9.22 µM]
11 | Cc1cc(N/C(=N/S(=O)(=O)c2ccc(F)cc2)c2ccccc2)n(-c2ccccc2)n1 | inconclusive: 12.6 µM [inhibitor, single point] | –
12 | Nc1ncnc(NCc2ccc(F)cc2)c1[N+](=O)[O-] | inconclusive: 3.16 µM [inhibitor, single point] | –
13 | CCOC(=O)c1sc2cc([N+](=O)[O-])cc(SCC(C)C)c2c1N | – | inactive: 18.6%
14 | CNc1cc(CSC)nc(SCc2ccc(Cl)cc2Cl)n1 | inconclusive: 35.5 µM [inhibitor, single point] | –
15 | CC(C)C(=O)NC(c1ccccc1)c1cc([N+](=O)[O-])c2cccnc2c1O (configuration not stated) | active: 8.91 µM | –
16 | COc1ccc(/C=C2/SC(=S)N(n3c(C)ccc3C)C2=O)cc1 | – | inactive: -4.59% [at 9.22 µM]
17 | Nc1c(Cl)ncnc1N/N=C/c1ccc2ccccc2n1 | inconclusive: 3.16 µM [inhibitor, partial curve] | –
18 | CCS(=O)(=O)c1nc(S(=O)(=O)c2ccc(Cl)cc2)c(NCc2ccccn2)s1 | – | inactive: -2.82%
19 | COC(=O)c1[nH]c2cc(OC)c(OC)cc2c1NC(=O)Oc1ccccc1 | inconclusive: 35.5 µM [activator, single point] | –
20 | CC1(C)[C@@H]2CC[C@@]1(C)C(=O)C2 | – | inactive: -3.49%
21 | C[N+](C)(C)CCN(Cc1ccc(Cl)cc1)c1ccccn1 | inconclusive: 5.62 µM [inhibitor, single point] | –
22 | N/C(=N\OC(=O)COc1ccc2ccccc2c1Br)c1ccccn1 | inconclusive: 12.6 µM [inhibitor, partial curve] | –
23 | C/[N+]([O-])=C\C1C(=O)CC(C)(C)CC1=O | inconclusive: 5.62 µM [activator, single point] | –
24 | COc1ccc(N=C/C=C2\C=C(c3ccccc3)OC(C)(C)O2)cc1 | inconclusive: 31.6 µM [inhibitor, single point] | –

Row | Structure (SMILES) | Potency | activity change, negative = inhibition
25 | CCOc1c(Cl)cc(CNC(C)(C)CC(C)(C)C)cc1OC | – | inactive: 5.4%
26 | Cc1nnc2sc(SCc3ccc(Br)cc3)nn2c1=O | – | inactive: -9.4%
27 | CCCCSc1nc(C)cc(SCC(=O)N/N=C/c2cccc(OC)c2O)n1 | inconclusive: 8.91 µM [inhibitor, partial curve] | –
28 | CCCCN(Cc1ccccc1)C(=O)CCN1C(=O)C2C3C=CC(C3)C2C1=O (configuration not stated) | – | inactive: 5.27%
29 | COc1ccc(N2CCN(c3oc(-c4ccco4)nc3C#N)CC2)cc1 | – | inactive: -8.42%
30 | c1ccc(-c2nnc(N3CCN(c4ccccn4)CC3)c3ccccc23)cc1 | inconclusive: 35.5 µM [inhibitor, single point] | –
31 | COC(C[C@@H](O)CC(=O)COCc1ccccc1)OC | – | inactive: 3.59% [at 9.22 µM]
32 | Cn1c(=O)c2c(nc(CN3CCN(C(=O)c4ccco4)CC3)n2CCCc2ccccc2)n(C)c1=O | – | inactive: 20.5%
33 | O=C1OCC2=C1C(c1ccc(F)cc1)c1cc3c(cc1N2)OCCO3 (configuration not stated) | inconclusive: 11.2 µM [inhibitor, partial curve] | –
34 | CC(C)(C)c1ccc(C(=O)N2CCCN(C(=O)c3ccc(C(C)(C)C)cc3)CC2)cc1 | inconclusive: 20 µM [inhibitor, single point] | –
35 | Nc1ccc(CCc2nc3ccccc3o2)cc1 | inconclusive: 3.16 µM [activator, partial curve, poor fit] | –
36 | CCOc1ccc(OCC)c(S(=O)(=O)NCCOC23CC4CC(CC(C4)C2)C3)c1 | inconclusive: 14.1 µM [inhibitor, single point] | –
37 | C=CCc1cccc(/C=N/NC(=O)c2ccccc2OC)c1O | inconclusive: 8.91 µM [inhibitor, partial curve] | –
38 | CC1(C)Cc2nc3nc(SCC(=O)NCCc4ccccc4)n(-c4ccccc4)c(=O)c3cc2CO1 | inconclusive: 0.708 µM [activator, full curve, poor fit] | –
39 | N#CC1=C(N)N(c2ccccc2)C(c2cccc([N+](=O)[O-])c2)C1(C#N)C#N (configuration not stated) | inconclusive: 11.2 µM [activator, partial curve] | –
40 | CCCCCCCCSc1nnc(CSc2nc3nc(C)cc(C)n3n2)o1 | active: 22.4 µM | –
41 | O=S(=O)(c1ccc(NC(=S)NC2CCCC2)cc1)N1CCCC1 | – | inactive: -17.5%
42 | Cc1ccc(S(=O)(=O)NCCc2ccncc2)cc1C | inconclusive: 1.41 µM [activator, partial curve] | –
43 | Cc1onc(-c2ccccc2Cl)c1C(=O)Nc1sc2c(c1C#N)CCC2 | active: 11.2 µM | –
44 | Oc1ccc(/C=N/Nc2nc(N3CCCCCC3)nc(N3CCCCCC3)n2)c(O)c1 | inconclusive: 31.6 µM [inhibitor, single point] | –
45 | Cc1cccc(C2Nc3ccccc3C(=O)N2c2ccccc2)n1 (configuration not stated) | – | inactive: 5%
46 | Cc1ccc(NS(=O)(=O)c2ccc(N3CCN(c4ccc(O)cc4)CC3)c([N+](=O)[O-])c2)c(C)c1 | – | inactive: -30.4%
47 | O=[N+]([O-])c1cc(C(F)(F)F)cc([N+](=O)[O-])c1NN=C1CCCCC1 | – | inactive: 26.6%
48 | CN1CCN(S(=O)(=O)c2ccc(-c3ccc(Cl)cc3)cc2)CC1 | inconclusive: 2.82 µM [activator, single point] | –

Row | Structure (SMILES) | Potency | activity change, negative = inhibition
49 | Cc1c(N=Cc2cccs2)c(=O)n(-c2ccccc2)n1C | – | inactive: 4.89%
50 | CC1C/C(=C/c2ccncc2)C(=O)/C(=C/c2ccncc2)C1 (configuration not stated) | inconclusive: 35.5 µM [inhibitor, partial curve, poor fit] | –
51 | COc1cc(/C=C(/C#N)c2ccc(F)cc2)ccc1Oc1ccc([N+](=O)[O-])cn1 | inconclusive: 10 µM [inhibitor, partial curve] | –
52 | O=S1(=O)CCC(NC(=S)SCc2ccccc2Br)C1 (configuration not stated) | inconclusive: 22.4 µM [inhibitor, single point] | –
53 | COc1ccc(NC(=S)c2ccncc2)cc1 | – | inactive: -17.4%
54 | CC(=O)Oc1ccc(OC(C)=O)c(SCCCCCCl)c1 | inconclusive: 35.5 µM [inhibitor, single point] | –
55 | O=[N+]([O-])c1cc(C(F)(F)F)ccc1NCCCCNS(=O)(=O)c1ccc2ccccc2c1 | inconclusive: 35.5 µM [inhibitor, single point] | –
56 | O=C(NC(NC(=S)Nc1c(Cl)cccc1Cl)C(Cl)(Cl)Cl)OCc1ccccc1 (configuration not stated) | active: 22.4 µM | –
57 | CC1Cc2ccccc2N1C(=O)CSc1ccccc1 (configuration not stated) | – | inactive: -13.2%
58 | Cc1c(NC(=S)N/N=C\c2ccccc2O)c(=O)n(-c2ccccc2)n1C | inconclusive: 35.5 µM [inhibitor, single point] | –
59 | O=C(N/N=C\c1coc2ccccc2c1=O)c1ccco1 | – | inactive: 2.69% [at 9.22 µM]
60 | CC1=NN(c2ccccc2)C(=O)/C1=C/C=C/C=C/N(C)C | inconclusive: 0.562 µM [activator, full curve, poor fit] | –
61 | Cc1cc(C2=NNC(=NC3CC3)SC2)c(C)n1-c1ccccc1F | – | inactive: 13.3%
62 | Clc1ccc2oc(-c3ccccc3)cc(=NCCCN3CCOCC3)c2c1 | inconclusive: 10 µM [inhibitor, partial curve] | –
63 | Cc1cc(NC(=O)C(=O)NCCN2CCN(C(=O)c3cccs3)CC2)ccc1Br | inconclusive: 35.5 µM [inhibitor, single point] | –
64 | Cc1nc2cc(F)ccc2n1C1CCN(S(=O)(=O)c2ccccc2)CC1 | inconclusive: 11.2 µM [inhibitor, partial curve] | –
65 | O=c1cc(-c2ccccc2F)nc(-c2ccccc2F)o1 | – | inactive: 1.96%
66 | COc1ccc(Br)cc1C1SCCN1S(C)(=O)=O (configuration not stated) | inconclusive: 0.708 µM [inhibitor, single point] | –
67 | CCOC(=O)C1=C(Cc2ccc(OC)cc2)C(=O)c2ccccc2C1=O | inconclusive: 22.4 µM [inhibitor, single point] | –
68 | O=C(N=Nc1c(O)n(Cc2ccccc2)c2ccccc12)c1ccncc1 | – | inactive: 8.03% [at 9.22 µM]
69 | CO/N=C(/C(=O)N[C@@H]1C(=O)N2C(C(=O)O)=C(CSC(=O)c3ccco3)CSC12)c1csc(N)n1 (some centres not stated) | – | inactive: 3.74%
70 | COc1ccccc1/C=C/C(=O)Oc1cccc2cccnc12 | – | inactive: -2.89%
71 | Cc1ccc(-n2nc(C)c3c2OC(N)=C(C#N)C3c2ccc(F)cc2)cc1 (configuration not stated) | – | inactive: -21.4%
72 | O=C(N/N=C/c1cc([N+](=O)[O-])ccc1O)NC12CC3CC(CC(C3)C1)C2 | inconclusive: 12.6 µM [inhibitor, partial curve] | –
